In all, about 400,000 compounds went through this assay and about 3,700 (0.93%) were called active. The inconclusive results got no clear call from the source; some entries with a clear call stand among them for comparison. The call rests on the fitted dose curve; in most records, active means well fitted inhibition curve with a large enough effect; inconclusive means small, poorly fitted or top-dose-only effect, or another doubt; inactive means no such curve, though single readings can be large or run the other way. Where the call is inconclusive, the potency comes from a doubtful curve fit.
target: Vitamin D3 receptor (Homo sapiens) (UniProt P11473); experiment: Inhibitors of the vitamin D receptor (VDR): qHTS; details: VDR-SRC2-3 peptide fluorescence polarization, 2 h; max response, negative = inhibition: stronger effect = lower value
Method in brief: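 After 23 nl compound addition and a short centrifugation, plates sat for 2 hours at ambient temperature; polarization of fluorescence then indicated loss of VDR binding to peptide SRC2-3.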
On the % scale 0 is the no-effect control and ±100 the full control effect; potency means the concentration at half of the fitted maximal effect.

The chains behind the UniProt entries cited, without tags or fusion partners. Where a name states a change or a piece, a line headed by the entry shows the natural chain unless it says otherwise.
UniProt P11473: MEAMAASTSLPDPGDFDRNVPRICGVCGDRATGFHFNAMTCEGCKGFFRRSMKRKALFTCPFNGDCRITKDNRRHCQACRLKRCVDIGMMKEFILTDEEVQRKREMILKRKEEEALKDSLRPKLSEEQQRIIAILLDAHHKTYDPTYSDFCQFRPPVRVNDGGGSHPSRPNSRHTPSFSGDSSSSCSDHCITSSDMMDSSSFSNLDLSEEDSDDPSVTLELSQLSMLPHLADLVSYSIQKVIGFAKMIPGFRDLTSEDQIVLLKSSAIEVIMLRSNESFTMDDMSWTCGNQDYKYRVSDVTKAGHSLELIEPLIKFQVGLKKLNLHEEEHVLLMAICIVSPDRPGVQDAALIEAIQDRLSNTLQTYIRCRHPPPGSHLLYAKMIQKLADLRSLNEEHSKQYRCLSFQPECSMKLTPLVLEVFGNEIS

| Structure (SMILES) | Potency | max response, negative = inhibition |
| --- | --- | --- |
| COC(=O)c1c(NC(=O)CCCOc2cccc(C)c2)sc2c1C(C(=O)OC)CC2 (stereo not drawn) | inconclusive: 14.1 µM [inhibitor, full curve, poor fit] | – |
| CCN1C(=O)/C(=C\C(=O)c2cccs2)c2cc(Br)ccc21 | active: 35.5 µM | – |
| Cc1ccccc1N1C(S)=C(C#N)C(=O)NC1c1cccs1 (stereo not drawn) | active: 22.4 µM | – |
| CCSC1=NC(C)(C)C=C(/C=C/c2ccc(Cl)cc2Cl)N1 | inconclusive: 56.2 µM [inhibitor, partial curve, poor fit] | – |
| COc1cc(OC)c(Nc2nc3ccc(C(=O)c4ccccc4)cc3n3c(C)nnc23)cc1Cl | inconclusive: 89.1 µM [inhibitor, single point] | – |
| CC(C)(C)C(CCl)C(=O)NN=C(c1ccccc1)c1ccccc1 (stereo not drawn) | inconclusive: 15.8 µM [inhibitor, partial curve, poor fit] | – |
| O=C(Nc1ncc2c(n1)-c1ccccc1CC2)c1cccc(Cl)c1 | – | inactive: -20.3% |
| COc1ccc(N2C(S)=C(C#N)C(=O)NC23CCCCC3)cc1 | active: 50.1 µM | – |
| Nc1nc(-c2ccc(-c3ccccc3)cc2)cs1 | inconclusive: 20 µM [inhibitor, partial curve, poor fit] | – |
| O=C(Nc1ccc(Cl)cc1)C1CCCN(C2=NS(=O)(=O)c3ccccc32)C1 (stereo not drawn) | inconclusive: 70.8 µM [inhibitor, partial curve] | – |
| O=C(C1CCC1)N1CCc2cc(S(=O)(=O)NCC3COc4ccccc4O3)ccc21 (stereo not drawn) | inconclusive: 79.4 µM [inhibitor, single point] | – |
| CCN(C(=O)c1cnc2ccc(C)cn2c1=O)c1ccccc1 | inconclusive: 79.4 µM [inhibitor, single point] | – |
| COC(C[C@H]1O[C@H]1C(=O)[C@H](C)OCc1ccccc1)OC | inconclusive: 89.1 µM [inhibitor, partial curve, poor fit] | – |
| Cc1cccc(-c2nnc(C3CCN(S(=O)(=O)c4cccc(Cl)c4)CC3)o2)c1 | inconclusive: 89.1 µM [inhibitor, single point] | – |
| O=C(CSc1nnc(-c2cccc(Br)c2)o1)N1CCNC1=O | inconclusive: 100 µM [inhibitor, partial curve, poor fit] | – |
| COc1ccc(-c2csc(N)n2)cc1 | – | inactive: -12.6% |
| CC1C=C[C@@H]2[C@H](C1)C(=O)N(Cc1ccccc1)[C@H]2c1ccccc1Br (stereo partly drawn) | active: 44.7 µM | – |
| COCc1c(C(=O)OCC(=O)c2ccc[nH]2)oc2ccccc12 | – | inactive: -6.41% |
| CC(=O)Oc1ccc(-c2csc(Nc3cccc(C)n3)n2)cc1 | – | inactive: 0.26% |
| Cc1cc(NC(=O)CSc2ccccn2)no1 | – | inactive: 5.86% |
| OCc1nn2c(c1Br)NC(c1ccccc1)CC2C(F)(F)F (stereo not drawn) | inconclusive: 28.2 µM [inhibitor, single point] | – |
| O=C(CCCl)Nc1nc2c(s1)CCc1ccccc1-2 | – | inactive: 2.56% |
| N#C/C(=C\c1ccc(OCc2ccc(Br)cc2)cc1)C(=O)Nc1cccc(C(=O)O)c1 | inconclusive: 56.2 µM [inhibitor, partial curve, poor fit] | – |

| Structure (SMILES) | Potency | max response, negative = inhibition |
| --- | --- | --- |
| CCCOc1ccc(/C(O)=C2/C(=O)C(=O)N(CCCOC)C2c2ccncc2)cc1 (stereo not drawn) | inconclusive: 89.1 µM [inhibitor, partial curve] | – |
| CN(Cc1ccccc1)C(=O)c1ccc2c(c1)N(Cc1ccccc1Cl)C(=O)c1ccccc1S2 | – | inactive: 8.95% |
| Cc1cc(C)cc(NC(=O)Cn2nnc(C(=O)NCc3ccc(F)cc3)c2N)c1 | active: 20 µM | – |
| O=C(CSc1ccc(-c2ccccn2)nn1)N1CCCC1 | active: 70.8 µM | – |
| CCOc1cc(CNC(=O)c2ccc3c(c2)NC(=O)C2CCCCN32)cc(OCC)c1OCC (stereo not drawn) | – | inactive: 8.37% |
| O=C(COc1cccc(Br)c1)N/N=C1\CCSC1 | inconclusive: 50.1 µM [inhibitor, partial curve, poor fit] | – |
| CN(C)c1ccc(N2CN=C3SCC(=O)N3C2)cc1 | inconclusive: 35.5 µM [inhibitor, partial curve, poor fit] | – |
| CCOC(=O)C1=C(C)N(CCCCCC(=O)O)C(=O)NC1c1cccc([N+](=O)[O-])c1 (stereo not drawn) | – | inactive: 3.66% |
| COc1ccc(-c2cccc(-c3cc(=O)oc4cc5c(cc34)OCO5)c2)cc1 | inconclusive: 126 µM [inhibitor, partial curve, poor fit] | – |
| COc1ccc(NC(=O)CSC2=Nc3ccccc3C3=NC(CCC(=O)NC4CCCCC4)C(=O)N23)cc1 (stereo not drawn) | – | inactive: 5.97% |
| O=C1OC(NC(=O)c2ccccc2)C(n2cc(CO)nn2)=C1Cl (stereo not drawn) | active: 39.8 µM | – |
| O/N=C(\CN1CCCCC1)c1ccccc1 | inconclusive: 89.1 µM [inhibitor, partial curve, poor fit] | – |
| N#Cc1ccc(/C=C/C(=O)c2ccccc2)cc1 | active: 14.1 µM | – |
| CC(=O)N1CCN(CC(=O)c2ccc(Br)cc2)CC1 | inconclusive: 79.4 µM [inhibitor, single point] | – |
| Cc1ccc(/C=N/Nc2cccc(C(=O)O)c2)s1 | – | inactive: -13.6% |
| COc1ccc(S(=O)(=O)n2nc(OC(=O)c3ccncc3)cc2N)cc1 | inconclusive: 56.2 µM [inhibitor, partial curve, poor fit] | – |
| CCN(CC(=O)Nc1c(F)cccc1F)C(=O)/C=C/c1ccc2c(c1)OCO2 | inconclusive: 89.1 µM [inhibitor, single point] | – |
| CC(C)CCSc1cc(NCCO)c([N+](=O)[O-])c2nonc12 | – | inactive: -9.58% |
| O=C1C=CC(=Nc2cccc3c2C(=O)c2ccccc2-3)O1 | inconclusive: 14.1 µM [inhibitor, partial curve, poor fit] | – |
| CCOc1ccc(C(=O)N2CCC(c3nc4ccccc4o3)CC2)cc1 | – | inactive: 14.5% |
| CCOc1ccc(OCC)c(NC(=O)c2nnn(CC(=O)Nc3ccc(C)cc3C)c2N)c1 | inconclusive: 89.1 µM [inhibitor, single point] | – |
| CC(C)=CCC1C(=O)N(c2ccccc2)N(c2ccccc2)C1=O | active: 25.1 µM | – |
| Cc1ccc(C(=O)C2=C(O)C(=O)N(Cc3cccnc3)C2c2ccc(Br)cc2)o1 (stereo not drawn) | – | inactive: -19.2% |

2 entries picked at random from those above:

| Structure (SMILES) | Potency | max response, negative = inhibition |
| --- | --- | --- |
| CCOc1ccc(C(=O)N2CCC(c3nc4ccccc4o3)CC2)cc1 | – | inactive: 14.5% |
| CN(C)c1ccc(N2CN=C3SCC(=O)N3C2)cc1 | inconclusive: 35.5 µM [inhibitor, partial curve, poor fit] | – |

Going on with the list:

| Structure (SMILES) | Potency | max response, negative = inhibition |
| --- | --- | --- |
| COc1ccc(NC(=O)COc2ccc(-c3nn(C)c(=O)c4ccccc34)cc2)cc1 | inconclusive: 79.4 µM [inhibitor, partial curve, poor fit] | – |
| Cn1c(=O)[nH]c(=O)c2c1nc([N+](=O)[O-])n2Cc1ccccc1 | inconclusive: 50.1 µM [inhibitor, partial curve, poor fit] | – |
| CC(NC(=O)c1ccc2c(c1)CCN2S(=O)(=O)c1ccc(Cl)cc1)c1ccccc1 (stereo not drawn) | – | inactive: 13.3% |
| Cc1ccc(S(=O)(=O)N2CCN(C(=O)CC(C)n3nc(C)c(Cl)c3C)CC2)cc1C (stereo not drawn) | – | inactive: 0.353% |
| O=c1cc(-c2ccccc2Cl)oc2c([N+](=O)[O-])c(O)cc(O)c12 | inconclusive: 44.7 µM [inhibitor, partial curve] | – |
| C/C(=N/NC(=O)c1ccc(Br)o1)c1cccc(NC(=O)c2ccc(C)o2)c1 | inconclusive: 63.1 µM [inhibitor, partial curve, poor fit] | – |
| COc1ccc(S(=O)(=O)N2CCN(c3ccccc3)CC2)cc1 | inconclusive: 79.4 µM [inhibitor, partial curve, poor fit] | – |
| CCCCN(C)C(=O)Cn1ncc2c3ccccc3n(CCC)c2c1=O | inconclusive: 89.1 µM [inhibitor, single point] | – |
| CCOc1ccccc1NC(=O)c1nn(-c2ccc(C)cc2)c(=O)n(C)c1=O | – | inactive: 2.35% |
| Cc1ccc2nc(N3C(=O)C(O)=C(C(=O)c4ccco4)C3c3cccs3)sc2c1 (stereo not drawn) | inconclusive: 79.4 µM [inhibitor, partial curve] | – |
| CCc1ccc(NC(=O)/C(C#N)=C/c2ccncc2)cc1 | inconclusive: 89.1 µM [inhibitor, partial curve, poor fit] | – |
| CCCCCS(=O)(=O)c1oc(-c2cccs2)nc1S(=O)(=O)c1ccc(C)cc1 | inconclusive: 14.1 µM [inhibitor, partial curve, poor fit] | – |
| Cc1ccc(C)c(-n2c(Cc3cccs3)n[nH]c2=S)c1 | – | inactive: 11% |
| COc1ccc2[nH]cc(CCNc3cc(-c4cccnc4)ncn3)c2c1 | inconclusive: 56.2 µM [inhibitor, partial curve] | – |
| CCOC(=O)CNC(=O)c1ccc(C)cc1 | inconclusive: 15.8 µM [inhibitor, partial curve, poor fit] | – |
| O=C(CS(=O)CC(=O)N(c1cccc(F)c1)C(C(=O)NC1CCCCC1)c1ccco1)Nc1ccc(F)cc1 (stereo not drawn) | – | inactive: 10.4% |
| COc1cc(NC(=O)C2=C(N3CCOCC3)/C(=C\c3ccc(Br)cc3)CC2)cc(OC)c1OC | inconclusive: 79.4 µM [inhibitor, partial curve, poor fit] | – |
| C=CCN1C(=O)/C(=C/c2ccc(OCC(=O)O)cc2)S/C1=N/c1nccs1 | inconclusive: 79.4 µM [inhibitor, partial curve, poor fit] | – |
| COc1ccccc1NC(=O)C1CC(C)OC1=O (stereo not drawn) | inconclusive: 25.1 µM [inhibitor, partial curve, poor fit] | – |
| CCN(CC)S(=O)(=O)c1ccc2nc(CCl)[nH]c2c1 | – | inactive: -22.3% |
| O=S(=O)(/C=C/c1ccccc1)N1CCOCC1 | – | inactive: 2.09% |
| CN(C)/C=C/C(=O)/C=C/c1ccc(Cl)cc1Cl | inconclusive: 79.4 µM [inhibitor, single point] | – |

Entries of single compounds, quoted from the list. Order of values: Potency	max response, negative = inhibition
Cc1ccccc1N1C(S)=C(C#N)C(=O)NC1c1cccs1 (stereo not drawn) as listed: active: 22.4 µM	–
CCCCN(C)C(=O)Cn1ncc2c3ccccc3n(CCC)c2c1=O as listed: inconclusive: 89.1 µM [inhibitor, single point]	–
CCN(C(=O)c1cnc2ccc(C)cn2c1=O)c1ccccc1 as listed: inconclusive: 79.4 µM [inhibitor, single point]	–
CC(C)CCSc1cc(NCCO)c([N+](=O)[O-])c2nonc12 as listed: –	inactive: -9.58%
